According to the supplement of paper PMC12823440, “Inhibitors supercharge kinase turnover through native proteolytic circuits” (Nature, 2025):
Where a name gives a salt, the structure may show the parent alone. Some of the results follow. Hit calls seldom repeat between salt and free forms of one compound.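 Kinases, fused to nanoluciferase, were expressed in K562 cells; luminescence was measured every 4 h from 2 to 18 h as percent of control (DMSO = 100%, positive control = 0%). A time point is decreased if signal falls significantly (2 sigma). Hits were called by the authors by a rule that is not shown; the count of time points alone does not decide it.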

Amino acid sequences for entries named in this document (tags omitted). A change or cut given only in a name is not applied to a line headed by its entry.
UniProt P00519, whole entry: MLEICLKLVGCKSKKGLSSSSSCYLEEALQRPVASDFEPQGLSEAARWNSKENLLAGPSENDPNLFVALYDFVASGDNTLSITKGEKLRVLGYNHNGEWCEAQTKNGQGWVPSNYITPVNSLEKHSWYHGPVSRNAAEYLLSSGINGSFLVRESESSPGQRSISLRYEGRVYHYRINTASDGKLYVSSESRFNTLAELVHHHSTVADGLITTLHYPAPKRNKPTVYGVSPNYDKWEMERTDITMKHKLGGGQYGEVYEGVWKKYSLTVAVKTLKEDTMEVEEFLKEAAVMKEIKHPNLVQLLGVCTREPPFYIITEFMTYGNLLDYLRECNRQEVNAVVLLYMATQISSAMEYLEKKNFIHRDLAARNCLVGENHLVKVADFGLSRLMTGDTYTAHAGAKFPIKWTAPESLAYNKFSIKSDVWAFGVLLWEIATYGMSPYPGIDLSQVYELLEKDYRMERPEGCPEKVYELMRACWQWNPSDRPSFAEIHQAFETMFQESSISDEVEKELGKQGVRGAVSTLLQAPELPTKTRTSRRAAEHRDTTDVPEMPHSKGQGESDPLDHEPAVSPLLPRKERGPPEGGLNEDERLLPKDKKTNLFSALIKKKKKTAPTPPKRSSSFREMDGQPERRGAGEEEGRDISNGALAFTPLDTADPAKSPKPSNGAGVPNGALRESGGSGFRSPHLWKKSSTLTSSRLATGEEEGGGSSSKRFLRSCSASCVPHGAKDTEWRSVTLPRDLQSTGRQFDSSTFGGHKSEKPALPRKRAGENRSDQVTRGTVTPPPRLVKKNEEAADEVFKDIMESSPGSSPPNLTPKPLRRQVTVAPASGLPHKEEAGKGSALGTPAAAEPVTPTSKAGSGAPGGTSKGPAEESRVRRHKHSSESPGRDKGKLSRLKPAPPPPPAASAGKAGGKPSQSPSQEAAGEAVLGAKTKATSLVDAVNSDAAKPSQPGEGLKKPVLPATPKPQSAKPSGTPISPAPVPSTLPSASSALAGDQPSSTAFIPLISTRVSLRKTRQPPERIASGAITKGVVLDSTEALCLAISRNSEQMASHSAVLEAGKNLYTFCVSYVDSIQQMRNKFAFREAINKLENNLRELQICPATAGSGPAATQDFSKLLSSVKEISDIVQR
UniProt P10398: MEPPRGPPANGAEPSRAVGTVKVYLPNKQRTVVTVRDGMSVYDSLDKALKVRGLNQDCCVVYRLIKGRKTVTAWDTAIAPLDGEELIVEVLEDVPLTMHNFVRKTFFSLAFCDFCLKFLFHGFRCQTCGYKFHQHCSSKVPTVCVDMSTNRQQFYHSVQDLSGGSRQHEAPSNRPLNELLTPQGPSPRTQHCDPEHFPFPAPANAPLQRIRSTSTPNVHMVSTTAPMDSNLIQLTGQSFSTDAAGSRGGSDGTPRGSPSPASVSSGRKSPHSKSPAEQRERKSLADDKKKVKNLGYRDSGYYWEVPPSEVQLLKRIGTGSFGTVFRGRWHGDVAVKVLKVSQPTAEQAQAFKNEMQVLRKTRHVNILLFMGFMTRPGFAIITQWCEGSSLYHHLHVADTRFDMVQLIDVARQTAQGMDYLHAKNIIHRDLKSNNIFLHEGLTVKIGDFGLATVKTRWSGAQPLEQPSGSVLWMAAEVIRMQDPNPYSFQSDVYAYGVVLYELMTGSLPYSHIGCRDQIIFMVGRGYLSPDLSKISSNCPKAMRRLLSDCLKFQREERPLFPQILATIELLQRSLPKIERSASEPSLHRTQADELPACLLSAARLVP
UniProt Q96GD4, whole entry: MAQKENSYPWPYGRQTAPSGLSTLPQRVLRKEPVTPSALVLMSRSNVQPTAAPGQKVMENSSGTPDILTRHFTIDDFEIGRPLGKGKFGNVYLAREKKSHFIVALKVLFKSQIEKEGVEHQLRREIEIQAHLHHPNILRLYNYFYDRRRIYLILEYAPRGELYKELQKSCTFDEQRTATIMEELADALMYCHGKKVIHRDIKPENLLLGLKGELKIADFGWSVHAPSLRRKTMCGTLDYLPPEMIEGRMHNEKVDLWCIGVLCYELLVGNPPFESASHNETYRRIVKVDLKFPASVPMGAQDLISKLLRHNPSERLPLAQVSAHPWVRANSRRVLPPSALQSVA
UniProt P51451: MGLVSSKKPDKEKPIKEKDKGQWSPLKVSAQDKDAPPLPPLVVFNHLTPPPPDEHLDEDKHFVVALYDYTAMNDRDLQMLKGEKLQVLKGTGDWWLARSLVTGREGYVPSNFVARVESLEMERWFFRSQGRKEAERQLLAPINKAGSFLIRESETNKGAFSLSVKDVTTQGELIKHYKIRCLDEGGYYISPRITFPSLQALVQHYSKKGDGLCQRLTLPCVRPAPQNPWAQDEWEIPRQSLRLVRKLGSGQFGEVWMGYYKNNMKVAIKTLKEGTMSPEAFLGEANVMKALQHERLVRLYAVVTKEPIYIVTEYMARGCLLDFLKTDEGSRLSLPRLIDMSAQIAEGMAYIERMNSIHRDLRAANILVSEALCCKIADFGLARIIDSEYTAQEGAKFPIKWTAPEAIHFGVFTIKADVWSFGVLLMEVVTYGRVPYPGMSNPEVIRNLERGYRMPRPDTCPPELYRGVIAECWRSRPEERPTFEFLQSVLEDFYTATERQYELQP
UniProt P51813: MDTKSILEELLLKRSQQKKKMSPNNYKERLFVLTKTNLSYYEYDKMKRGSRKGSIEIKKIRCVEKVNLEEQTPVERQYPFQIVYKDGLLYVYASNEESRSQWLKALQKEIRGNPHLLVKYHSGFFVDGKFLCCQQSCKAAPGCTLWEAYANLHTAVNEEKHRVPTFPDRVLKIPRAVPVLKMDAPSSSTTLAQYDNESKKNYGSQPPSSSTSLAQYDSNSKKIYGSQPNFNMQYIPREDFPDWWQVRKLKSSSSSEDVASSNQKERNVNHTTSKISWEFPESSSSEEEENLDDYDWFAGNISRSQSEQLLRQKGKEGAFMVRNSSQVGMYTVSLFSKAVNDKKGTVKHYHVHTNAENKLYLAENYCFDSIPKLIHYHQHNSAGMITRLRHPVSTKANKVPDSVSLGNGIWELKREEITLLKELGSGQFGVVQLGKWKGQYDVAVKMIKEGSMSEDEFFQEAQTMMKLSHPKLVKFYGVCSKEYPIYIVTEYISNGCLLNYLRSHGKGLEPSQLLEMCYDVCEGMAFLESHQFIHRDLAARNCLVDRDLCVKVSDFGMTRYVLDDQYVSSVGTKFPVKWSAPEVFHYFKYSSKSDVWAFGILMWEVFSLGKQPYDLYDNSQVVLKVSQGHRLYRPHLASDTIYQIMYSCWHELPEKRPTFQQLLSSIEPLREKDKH
UniProt P15056, whole entry, looked up: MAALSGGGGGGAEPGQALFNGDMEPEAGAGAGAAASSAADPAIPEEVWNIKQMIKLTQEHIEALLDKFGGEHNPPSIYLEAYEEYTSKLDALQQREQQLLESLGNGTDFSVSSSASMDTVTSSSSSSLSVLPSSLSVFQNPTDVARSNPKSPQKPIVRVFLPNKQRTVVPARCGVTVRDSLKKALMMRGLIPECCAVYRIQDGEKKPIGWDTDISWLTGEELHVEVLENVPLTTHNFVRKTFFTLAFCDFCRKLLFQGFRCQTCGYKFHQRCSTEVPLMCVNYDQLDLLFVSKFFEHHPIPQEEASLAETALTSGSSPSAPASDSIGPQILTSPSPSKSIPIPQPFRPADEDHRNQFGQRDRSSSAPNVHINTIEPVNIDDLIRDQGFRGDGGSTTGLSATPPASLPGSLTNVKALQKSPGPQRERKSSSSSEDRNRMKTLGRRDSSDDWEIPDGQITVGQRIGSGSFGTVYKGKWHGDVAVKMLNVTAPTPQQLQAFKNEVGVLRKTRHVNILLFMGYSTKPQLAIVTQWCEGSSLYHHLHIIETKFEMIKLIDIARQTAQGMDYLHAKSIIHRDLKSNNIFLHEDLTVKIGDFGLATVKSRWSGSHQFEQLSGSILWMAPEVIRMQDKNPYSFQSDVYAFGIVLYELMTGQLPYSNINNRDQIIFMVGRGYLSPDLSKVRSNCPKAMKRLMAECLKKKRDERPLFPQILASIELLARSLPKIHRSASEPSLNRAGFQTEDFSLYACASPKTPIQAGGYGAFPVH
UniProt Q9UQM7, whole entry: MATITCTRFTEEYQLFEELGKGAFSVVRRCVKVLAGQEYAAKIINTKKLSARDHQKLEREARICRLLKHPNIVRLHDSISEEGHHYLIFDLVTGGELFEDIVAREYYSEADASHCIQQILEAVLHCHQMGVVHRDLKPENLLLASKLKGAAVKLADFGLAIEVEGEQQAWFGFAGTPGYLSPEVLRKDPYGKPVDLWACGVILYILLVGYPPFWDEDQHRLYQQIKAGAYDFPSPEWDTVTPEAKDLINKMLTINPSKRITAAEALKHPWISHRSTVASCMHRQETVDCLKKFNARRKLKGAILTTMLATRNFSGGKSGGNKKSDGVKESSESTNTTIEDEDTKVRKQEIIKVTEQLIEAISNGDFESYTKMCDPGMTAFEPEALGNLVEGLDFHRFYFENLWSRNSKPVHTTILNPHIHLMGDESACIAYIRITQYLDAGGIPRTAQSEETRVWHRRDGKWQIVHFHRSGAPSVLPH
UniProt Q15131: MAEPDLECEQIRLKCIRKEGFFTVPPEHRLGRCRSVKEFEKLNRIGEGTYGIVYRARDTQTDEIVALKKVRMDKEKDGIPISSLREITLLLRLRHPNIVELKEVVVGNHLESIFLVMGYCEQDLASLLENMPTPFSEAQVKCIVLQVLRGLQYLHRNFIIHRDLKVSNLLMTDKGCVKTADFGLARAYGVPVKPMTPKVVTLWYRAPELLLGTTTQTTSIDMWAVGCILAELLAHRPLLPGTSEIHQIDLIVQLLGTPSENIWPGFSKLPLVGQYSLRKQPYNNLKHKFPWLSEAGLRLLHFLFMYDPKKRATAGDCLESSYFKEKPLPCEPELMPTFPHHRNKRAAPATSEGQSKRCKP
UniProt Q00526: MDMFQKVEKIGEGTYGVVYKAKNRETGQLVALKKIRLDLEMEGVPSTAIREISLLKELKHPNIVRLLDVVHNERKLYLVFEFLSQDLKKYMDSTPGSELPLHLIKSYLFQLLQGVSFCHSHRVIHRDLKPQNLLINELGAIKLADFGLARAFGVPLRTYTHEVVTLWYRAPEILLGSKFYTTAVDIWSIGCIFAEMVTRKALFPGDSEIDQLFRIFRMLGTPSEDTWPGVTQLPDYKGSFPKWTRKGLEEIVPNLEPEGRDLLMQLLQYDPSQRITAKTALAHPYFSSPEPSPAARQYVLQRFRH
UniProt P11802: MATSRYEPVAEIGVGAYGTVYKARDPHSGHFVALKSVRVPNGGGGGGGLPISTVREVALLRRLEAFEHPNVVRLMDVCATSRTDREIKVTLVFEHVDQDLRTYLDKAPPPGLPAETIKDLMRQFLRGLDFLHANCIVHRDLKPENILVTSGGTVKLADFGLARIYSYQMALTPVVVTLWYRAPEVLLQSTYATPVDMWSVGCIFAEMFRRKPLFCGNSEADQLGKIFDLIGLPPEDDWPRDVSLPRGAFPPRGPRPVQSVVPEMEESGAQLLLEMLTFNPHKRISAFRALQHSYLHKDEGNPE
UniProt Q00535, whole entry, looked up: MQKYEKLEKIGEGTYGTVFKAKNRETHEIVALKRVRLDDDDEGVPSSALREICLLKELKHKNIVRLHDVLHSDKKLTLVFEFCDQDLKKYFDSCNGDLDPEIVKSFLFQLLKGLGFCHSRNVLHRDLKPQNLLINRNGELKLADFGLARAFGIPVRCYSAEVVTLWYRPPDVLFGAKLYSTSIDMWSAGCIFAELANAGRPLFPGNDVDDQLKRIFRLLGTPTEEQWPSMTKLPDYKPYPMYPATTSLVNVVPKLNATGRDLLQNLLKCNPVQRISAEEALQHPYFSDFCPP
UniProt Q00534, whole entry: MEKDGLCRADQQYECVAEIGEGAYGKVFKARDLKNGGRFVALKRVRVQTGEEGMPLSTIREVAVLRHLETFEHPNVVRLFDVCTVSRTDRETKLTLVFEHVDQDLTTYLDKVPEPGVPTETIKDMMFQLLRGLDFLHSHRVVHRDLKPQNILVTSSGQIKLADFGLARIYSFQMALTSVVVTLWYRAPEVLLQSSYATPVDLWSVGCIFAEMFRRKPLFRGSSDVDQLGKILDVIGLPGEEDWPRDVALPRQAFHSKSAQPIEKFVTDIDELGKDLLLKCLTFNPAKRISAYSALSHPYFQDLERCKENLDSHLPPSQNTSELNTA
UniProt Q9UQB9: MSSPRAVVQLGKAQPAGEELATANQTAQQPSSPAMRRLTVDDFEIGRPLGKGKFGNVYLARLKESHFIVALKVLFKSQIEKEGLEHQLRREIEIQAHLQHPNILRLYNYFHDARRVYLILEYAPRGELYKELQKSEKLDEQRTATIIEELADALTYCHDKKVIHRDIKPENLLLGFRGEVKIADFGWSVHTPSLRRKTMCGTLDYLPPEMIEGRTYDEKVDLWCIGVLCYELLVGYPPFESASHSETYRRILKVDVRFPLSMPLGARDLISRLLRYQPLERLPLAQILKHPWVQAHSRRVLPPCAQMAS

Key:
Test in all cases: kinase-Nluc reporter destabilization hit call (1 = scored as downregulated) (binary); higher = compound decreases kinase abundance
Conditions in all cases: K562, 2-18 h
ABL1 = ABL1 (UniProt P00519)
AKT1 = AKT1 (UniProt P31749)
ALK = ALK (UniProt Q9UM73)
ARAF = ARAF (UniProt P10398)
AURKA = AURKA (UniProt O14965)
AURKB = AURKB (UniProt Q96GD4)
BLK = BLK (UniProt P51451)
BMX = BMX (UniProt P51813)
BRAF = BRAF (UniProt P15056)
BRAF_V600E = test system: BRAF_V600E
BTK = BTK (UniProt Q06187)
CAMK2A = CAMK2A (UniProt Q9UQM7)
CAMK2G = CAMK2G (UniProt Q13555)
CDK10 = CDK10 (UniProt Q15131)
CDK2 = CDK2 (UniProt P24941)
CDK3 = CDK3 (UniProt Q00526)
CDK4 = CDK4 (UniProt P11802)
CDK5 = CDK5 (UniProt Q00535)
CDK6 = CDK6 (UniProt Q00534)
AURKC = AURKC (UniProt Q9UQB9)

Measured: kinase-Nluc reporter destabilization hit call

C[C@@H]1O[C@@H](Oc2c(-c3ccc(O)c(O)c3)oc3cc(O)cc(O)c3c2=O)[C@H](O)[C@H](O)[C@H]1O [Quercitrin]
inactive: ABL1; 10 µM 0 | AKT1; 10 µM 0 | ALK; 10 µM 0 | ARAF; 10 µM 0 | AURKA; 10 µM 0 | AURKB; 10 µM 0 | BLK; 10 µM 0 | BMX; 10 µM 0 | BRAF; 10 µM 0 | BRAF_V600E; 10 µM 0 | BTK; 10 µM 0 | CAMK2A; 10 µM 0 | CAMK2G; 10 µM 0 | CDK10; 10 µM 0 | CDK2; 10 µM 0 | CDK3; 10 µM 0 | CDK4; 10 µM 0 | CDK5; 10 µM 0 | CDK6; 10 µM 0

O=C(c1ccc(/C=C/c2n[nH]c3ccccc23)cc1)N1CCNCC1
inactive: ABL1; 2.5 µM 0 | AKT1; 2.5 µM 0 | ALK; 2.5 µM 0 | ARAF; 2.5 µM 0 | AURKA; 2.5 µM 0 | AURKB; 2.5 µM 0 | AURKC; 2.5 µM 0 | BLK; 2.5 µM 0 | BRAF; 2.5 µM 0 | BRAF_V600E; 2.5 µM 0 | BTK; 2.5 µM 0 | CAMK2A; 2.5 µM 0 | CAMK2G; 2.5 µM 0 | CDK10; 2.5 µM 0 | CDK3; 2.5 µM 0 | CDK4; 2.5 µM 0 | CDK5; 2.5 µM 0 | CDK6; 2.5 µM 0

C[C@H]1CN(C2COC2)CCN1c1ccc(Nc2cc(-c3ccnc(N4CCn5c(cc6c5CC(C)(C)C6)C4=O)c3CO)cn(C)c2=O)nc1 [Fenebrutinib]
inactive: ABL1; 10 µM 0 | AKT1; 10 µM 0 | ALK; 10 µM 0 | ARAF; 10 µM 0 | AURKA; 10 µM 0 | AURKB; 10 µM 0 | AURKC; 10 µM 0 | BLK; 10 µM 0 | BRAF; 10 µM 0 | BRAF_V600E; 10 µM 0 | BTK; 10 µM 0 | CAMK2A; 10 µM 0 | CAMK2G; 10 µM 0 | CDK10; 10 µM 0 | CDK2; 10 µM 0 | CDK3; 10 µM 0 | CDK4; 10 µM 0 | CDK5; 10 µM 0 | CDK6; 10 µM 0

CCc1cc2c(cc1-c1cnn(CC(=O)N(C)C)c1)C(C)(C)c1[nH]c3cc(C#N)ccc3c1C2=O
inactive: ABL1; 2.5 µM 0 | AKT1; 2.5 µM 0 | ALK; 2.5 µM 0 | ARAF; 2.5 µM 0 | AURKA; 2.5 µM 0 | AURKB; 2.5 µM 0 | AURKC; 2.5 µM 0 | BMX; 2.5 µM 0 | BRAF; 2.5 µM 0 | BRAF_V600E; 2.5 µM 0 | BTK; 2.5 µM 0 | CAMK2A; 2.5 µM 0 | CAMK2G; 2.5 µM 0 | CDK10; 2.5 µM 0 | CDK2; 2.5 µM 0 | CDK3; 2.5 µM 0 | CDK4; 2.5 µM 0 | CDK5; 2.5 µM 0 | CDK6; 2.5 µM 0

CC#CC(=O)N1CCC[C@H]1c1nc(-c2ccc(C(=O)Nc3ccccn3)cc2)c2c(N)nccn12 [Acalabrutinib]
inactive: ABL1; 10 µM 0 | AKT1; 10 µM 0 | ALK; 10 µM 0 | ARAF; 10 µM 0 | AURKA; 10 µM 0 | AURKB; 10 µM 0 | AURKC; 10 µM 0 | BLK; 10 µM 0 | BRAF; 10 µM 0 | BRAF_V600E; 10 µM 0 | BTK; 10 µM 0 | CAMK2A; 10 µM 0 | CAMK2G; 10 µM 0 | CDK10; 10 µM 0 | CDK2; 10 µM 0 | CDK3; 10 µM 0 | CDK4; 10 µM 0 | CDK5; 10 µM 0 | CDK6; 10 µM 0

NCCNc1ncc(C(N)=O)c(Nc2cccc(C(F)(F)F)c2)n1 [Syk Inhibitor II]
inactive: ABL1; 10 µM 0 | AKT1; 10 µM 0 | ALK; 10 µM 0 | ARAF; 10 µM 0 | AURKA; 10 µM 0 | AURKB; 10 µM 0 | BLK; 10 µM 0 | BMX; 10 µM 0 | BRAF; 10 µM 0 | BRAF_V600E; 10 µM 0 | BTK; 10 µM 0 | CAMK2A; 10 µM 0 | CAMK2G; 10 µM 0 | CDK10; 10 µM 0 | CDK2; 10 µM 0 | CDK3; 10 µM 0 | CDK4; 10 µM 0 | CDK5; 10 µM 0 | CDK6; 10 µM 0

O=C(Nc1cccc(Cl)c1)Nc1ncc(CCNc2ncnc3ccsc23)s1 [SNS-314 (mesylate)]
inactive: ABL1; 10 µM 0 | AKT1; 10 µM 0 | ALK; 10 µM 0 | ARAF; 10 µM 0 | AURKB; 10 µM 0 | AURKC; 10 µM 0 | BMX; 10 µM 0 | BRAF_V600E; 10 µM 0 | BTK; 10 µM 0 | CAMK2A; 10 µM 0 | CAMK2G; 10 µM 0 | CDK10; 10 µM 0 | CDK2; 10 µM 0 | CDK3; 10 µM 0 | CDK4; 10 µM 0 | CDK5; 10 µM 0 | CDK6; 10 µM 0

COc1ccc(-c2cc3nccn3c(Nc3ncccc3C(N)=O)n2)cc1OC [BAY 61-3606 (dihydrochloride)]
inactive: ABL1; 2.5 µM 0 | AKT1; 2.5 µM 0 | ALK; 2.5 µM 0 | ARAF; 2.5 µM 0 | AURKA; 2.5 µM 0 | AURKB; 2.5 µM 0 | AURKC; 2.5 µM 0 | BMX; 2.5 µM 0 | BRAF; 2.5 µM 0 | BRAF_V600E; 2.5 µM 0 | BTK; 2.5 µM 0 | CAMK2A; 2.5 µM 0 | CAMK2G; 2.5 µM 0 | CDK10; 2.5 µM 0 | CDK2; 2.5 µM 0 | CDK3; 2.5 µM 0 | CDK4; 2.5 µM 0 | CDK6; 2.5 µM 0

C[C@@H]1CN(C(=O)Nc2ccc(-c3nc(N4CCOCC4)c4cnn(CCCCCCC(=O)NO)c4n3)cc2)CCO1 [HDACs/mTOR Inhibitor 1]
inactive: ABL1; 10 µM 0 | AKT1; 10 µM 0 | ALK; 10 µM 0 | ARAF; 10 µM 0 | AURKB; 10 µM 0 | AURKC; 10 µM 0 | BLK; 10 µM 0 | BMX; 10 µM 0 | BRAF; 10 µM 0 | BRAF_V600E; 10 µM 0 | BTK; 10 µM 0 | CAMK2A; 10 µM 0 | CAMK2G; 10 µM 0 | CDK10; 10 µM 0 | CDK2; 10 µM 0 | CDK3; 10 µM 0 | CDK4; 10 µM 0 | CDK5; 10 µM 0 | CDK6; 10 µM 0

COc1nccc(-c2c(-c3ccc(F)cc3)ncn2C2CCNCC2)n1
inactive: ABL1; 10 µM 0 | AKT1; 10 µM 0 | ALK; 10 µM 0 | ARAF; 10 µM 0 | AURKA; 10 µM 0 | AURKB; 10 µM 0 | AURKC; 10 µM 0 | BMX; 10 µM 0 | BRAF; 10 µM 0 | BRAF_V600E; 10 µM 0 | BTK; 10 µM 0 | CAMK2A; 10 µM 0 | CAMK2G; 10 µM 0 | CDK10; 10 µM 0 | CDK2; 10 µM 0 | CDK3; 10 µM 0 | CDK4; 10 µM 0 | CDK6; 10 µM 0
